{
  "source": "the supplement of paper PMC4807443",
  "note": "Where a name gives a salt, the structure may show the parent alone. The list shows a part of the results. The numbers are fractions of the control, whatever unit the source prints. Most values lie at the level of the controls, where differences are scatter.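 MIN6 is a mouse insulinoma beta-cell line that stably carries a lentiviral reporter in which the Pdx1 and Ins1 promoters each drive a nucleus-targeted fluorescent protein; cells were counted by automated imaging with a Hoechst nuclear stain. In the screen, a drug was a possible hit when its Ins1 promoter readout lay beyond two median absolute deviations from the DMSO controls while Pdx1 activity stayed near normal.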",
  "data": [
    {"tested_on": "MIN6", "assay": "% Pdx1+ Ins1+ (double-positive, mature) cells relative to DMSO control (fold of DMSO control); higher = more mature Ins1 promoter-active cells", "settings": "8.5 µM; 48 h; glucose 5 mM", "values": [
      {"smiles": "CC(C)(C)CC(C)(C)c1ccc(OCCOCC[N+](C)(C)Cc2ccccc2)cc1", "note": "[Benzethonium chloride]", "% Pdx1+ Ins1+": 0.0633},
      {"smiles": "CCCCOc1ccc(C(=O)CCN2CCCCC2)cc1", "note": "[Dyclonine hydrochloride]", "% Pdx1+ Ins1+": 1.19},
      {"smiles": "C=C1C(=O)O[C@H]2[C@H]1CC/C(C)=C/CC[C@@]1(C)O[C@@H]21", "note": "[Parthenolide]", "% Pdx1+ Ins1+": 0.778},
      {"smiles": "CC(CN(C)C)CN1c2ccccc2CCc2ccccc21", "note": "(stereo not drawn) [Trimipramine maleate salt]", "% Pdx1+ Ins1+": 1.06},
      {"smiles": "COC(=O)[C@H]1[C@H]2C[C@H]3c4[nH]c5ccccc5c4CCN3C[C@H]2CC[C@@H]1O", "note": "[Rauwolscine hydrochloride]", "% Pdx1+ Ins1+": 0.877},
      {"smiles": "CC(C)NCC(O)COc1cccc2[nH]ccc12", "note": "(stereo not drawn) [Pindolol]", "% Pdx1+ Ins1+": 1.01},
      {"smiles": "OC(CCN1CCCC1)(c1ccccc1)C1CCCCC1", "note": "(stereo not drawn) [Procyclidine hydrochloride]", "% Pdx1+ Ins1+": 0.938},
      {"smiles": "Nc1ncnc2c1ncn2[C@@H]1O[C@@H]2COP(=O)(O)O[C@H]2[C@H]1O", "note": "[(-)-Adenosine 3',5'-cyclic monophosphate]", "% Pdx1+ Ins1+": 1.06},
      {"smiles": "C[C@H]1[C@H]2CC[C@H]3[C@@H]4CC=C5C[C@@H](N(C)C)CC[C@]5(C)[C@H]4CC[C@]23CN1C", "note": "[Conessine]", "% Pdx1+ Ins1+": 1.1},
      {"smiles": "C[C@H](CS)C(=O)N1CCC[C@H]1C(=O)O", "note": "[Captopril]", "% Pdx1+ Ins1+": 1.02},
      {"smiles": "CC1(C)O[C@@H]2C[C@H]3[C@@H]4C[C@H](F)C5=CC(=O)C=C[C@]5(C)[C@H]4[C@@H](O)C[C@]3(C)[C@]2(C(=O)CO)O1", "note": "[Flunisolide]", "% Pdx1+ Ins1+": 0.855},
      {"smiles": "CC1O[C@H](O[C@]2(O[C@H]3CC[C@@]4(C)C(=CC[C@H]5[C@@H]6C[C@H]7[C@H]([C@H](C)[C@H]8CC[C@H](C)CN87)[C@@]6(C)CC[C@@H]54)C3)C[C@@H](O[C@@H]3OC(CO)[C@@H](O)[C@@H](O)C3O)[C@@H](O)C(CO)O2)C(O)[C@@H](O)[C@H]1O", "note": "(stereo partly drawn) [Solanine alpha]", "% Pdx1+ Ins1+": 0.761},
      {"smiles": "CC[C@H](c1ccc(O)cc1)[C@@H](CC)c1ccc(O)cc1", "note": "[Hexestrol]", "% Pdx1+ Ins1+": 0.882},
      {"smiles": "Cc1c(Nc2ncccc2C(=O)O)cccc1C(F)(F)F", "note": "[Flunixin meglumine]", "% Pdx1+ Ins1+": 0.957},
      {"smiles": "NNC(=O)c1ccncc1", "note": "[Isoniazid]", "% Pdx1+ Ins1+": 1.12},
      {"smiles": "CC1(C)O[C@@H]2C[C@H]3[C@@H]4C[C@H](F)C5=CC(=O)CC[C@]5(C)[C@H]4[C@@H](O)C[C@]3(C)[C@]2(C(=O)CO)O1", "note": "[Flurandrenolide]", "% Pdx1+ Ins1+": 0.886},
      {"smiles": "O=c1[nH]c(=O)n([C@H]2C[C@H](O)[C@@H](CO)O2)cc1I", "note": "[Idoxuridine]", "% Pdx1+ Ins1+": 1.14},
      {"smiles": "Cc1cccc(N(C)C(=S)Oc2ccc3ccccc3c2)c1", "note": "[Tolnaftate]", "% Pdx1+ Ins1+": 1.07},
      {"smiles": "O=C(O)c1cccnc1", "note": "[Niacin]", "% Pdx1+ Ins1+": 0.9},
      {"smiles": "CCCCc1oc2ccccc2c1C(=O)c1cc(I)c(OCCN(CC)CC)c(I)c1", "note": "[Amiodarone hydrochloride]", "% Pdx1+ Ins1+": 0.879},
      {"smiles": "CCN1CCCC1CNC(=O)c1cc(S(N)(=O)=O)ccc1OC", "note": "(stereo not drawn) [Sulpiride]", "% Pdx1+ Ins1+": 1.07},
      {"smiles": "CC12CC3CC(C)(C1)CC(N)(C3)C2", "note": "[Memantine Hydrochloride]", "% Pdx1+ Ins1+": 0.88},
      {"smiles": "O=C(Nc1ccc([N+](=O)[O-])cc1Cl)c1cc(Cl)ccc1O", "note": "[Niclosamide]", "% Pdx1+ Ins1+": 1.07},
      {"smiles": "CCOc1ccc(Cc2nccc3cc(OCC)c(OCC)cc23)cc1OCC", "note": "[Ethaverine hydrochloride]", "% Pdx1+ Ins1+": 1},
      {"smiles": "C#C[C@]1(O)CC[C@H]2[C@@H]3CCC4=Cc5oncc5C[C@]4(C)[C@H]3CC[C@@]21C", "note": "[Danazol]", "% Pdx1+ Ins1+": 1.08},
      {"smiles": "CCC[C@@H]1C[C@@H](C(=O)N[C@@H]([C@H]2O[C@H](SC)[C@H](O)[C@@H](O)[C@H]2O)[C@@H](C)O)N(C)C1", "note": "[Lincomycin hydrochloride]", "% Pdx1+ Ins1+": 1.12},
      {"smiles": "CN1CCCN=C1/C=C/c1cccs1", "note": "[Pyrantel tartrate]", "% Pdx1+ Ins1+": 1.13},
      {"smiles": "OC(CCN1CCCCC1)(c1ccccc1)c1ccccc1", "note": "[Pridinol methanesulfonate salt]", "% Pdx1+ Ins1+": 0.842},
      {"smiles": "CCN(CC)CCNC(=O)c1cc(Br)c(N)cc1OC", "note": "[Bromopride]", "% Pdx1+ Ins1+": 0.871},
      {"smiles": "CC(C)NNC(=O)c1ccncc1", "note": "[Iproniazide phosphate]", "% Pdx1+ Ins1+": 1.07},
      {"smiles": "CN1CCN2c3ccccc3Cc3ccccc3C2C1", "note": "(stereo not drawn) [Mianserine hydrochloride]", "% Pdx1+ Ins1+": 1.03},
      {"smiles": "N[C@@H](Cc1ccc(O)c(O)c1)C(=O)O", "note": "[Levodopa]", "% Pdx1+ Ins1+": 1.13},
      {"smiles": "O=C(O)CCC(=O)c1ccc(-c2ccccc2)cc1", "note": "[Fenbufen]", "% Pdx1+ Ins1+": 0.992},
      {"smiles": "C[N+](C)(C)CCOC(N)=O", "note": "[Carbachol]", "% Pdx1+ Ins1+": 0.8},
      {"smiles": "CC(C)(C)NC[C@H](O)COc1cccc2c1CCCC2=O", "note": "[(-) -Levobunolol hydrochloride]", "% Pdx1+ Ins1+": 0.972},
      {"smiles": "Nc1ncn(C2OC(CO)C(O)C2O)c(=O)n1", "note": "(stereo not drawn) [Azacytidine-5]", "% Pdx1+ Ins1+": 0.959},
      {"smiles": "O=C1c2c(O)ccc(O)c2C(=O)c2c(NCCNCCO)ccc(NCCNCCO)c21", "note": "[Mitoxantrone dihydrochloride]", "% Pdx1+ Ins1+": 0.0706},
      {"smiles": "CCOC(=O)C1=C(C)NC(C)=C(C(=O)OC)C1c1cccc(Cl)c1Cl", "note": "(stereo not drawn) [Felodipine]", "% Pdx1+ Ins1+": 0.746},
      {"smiles": "C[C@H](CCC(=O)O)[C@H]1CC[C@H]2[C@@H]3C(=O)C[C@@H]4CC(=O)CC[C@]4(C)[C@H]3CC(=O)[C@]12C", "note": "[Dehydrocholic acid]", "% Pdx1+ Ins1+": 1.08},
      {"smiles": "C[N+](C)(CCOc1ccccc1)Cc1ccccc1.O=C([O-])c1cc2ccccc2cc1O", "note": "[Bephenium hydroxynaphthoate]", "% Pdx1+ Ins1+": 0.92},
      {"smiles": "CC(NCCc1ccc(O)cc1)C(O)c1ccc(O)cc1", "note": "(stereo not drawn) [Ritodrine hydrochloride]", "% Pdx1+ Ins1+": 0.871},
      {"smiles": "CCC1(C)CC(=O)NC1=O", "note": "(stereo not drawn) [Ethosuximide]", "% Pdx1+ Ins1+": 0.969},
      {"smiles": "CCCNC(C)(C)COC(=O)c1ccccc1", "note": "[Meprylcaine hydrochloride]", "% Pdx1+ Ins1+": 1.03},
      {"smiles": "CC(=O)Oc1ccc(C(c2ccc(OC(C)=O)cc2)c2ccccn2)cc1", "note": "[Bisacodyl]", "% Pdx1+ Ins1+": 0.964},
      {"smiles": "CCC(C)(C)C(=O)O[C@H]1C[C@@H](C)C=C2C=C[C@H](C)[C@H](CC[C@@H]3C[C@@H](O)CC(=O)O3)[C@H]21", "note": "[Simvastatin]", "% Pdx1+ Ins1+": 1.17},
      {"smiles": "O=C1O[C@H]([C@@H](O)CO)C(O)=C1O", "note": "[Ascorbic acid]", "% Pdx1+ Ins1+": 1.16},
      {"smiles": "O=C(O)c1ccccc1Nc1cccc(C(F)(F)F)c1", "note": "[Flufenamic acid]", "% Pdx1+ Ins1+": 1.08},
      {"smiles": "CC[N+](C)(CC)CCC[n+]1c(-c2ccccc2)c2cc(N)ccc2c2ccc(N)cc21", "note": "[Propidium iodide]", "% Pdx1+ Ins1+": 0.921}
    ]}
  ]
}
